# Measured values published in PubChem BioAssay AID540276 (National Center for Advancing Translational Sciences (NCATS), 2011).
# The campaign covered roughly 300,000 compounds. About 5,400 (1.8%) were called active. Inconclusive results, whose numbers are uncertain, are shown with a selection of clear calls. Calls come from the whole dose curve; tested in HEK293 cells. A potency beside an inconclusive call is a rough fit, not a confirmed value.
# Assay: qHTS for inhibitors of binding or entry into cells for Marburg Virus
# Conditions: Marburg virus pseudotyped entry inhibition, cell reporter; activity change, negative = inhibition: at 37.8 µM (top of the series) unless noted
# % is set by controls: 0 for no effect and ±100 for the full control effect; potency is the fitted concentration of half-maximal effect.
SMILES,Potency,"activity change, negative = inhibition"
COc1cc(-c2nc3ccc(C)cn3c2Nc2ccc(Cl)cc2)ccc1O,"inconclusive: 12.6 µM [inhibitor, partial curve, poor fit]",–
COc1cc(C(=O)NNC(=O)c2cc(-c3ccccc3)n[nH]2)cc(OC)c1C,–,inactive: -13.4% [at 46.1 µM]
Cc1[nH]n(-c2ccccc2)c(=O)c1C=Nc1cnc2ccccc2c1,–,inactive: 5.4%
Cc1ccc(NC(=S)NC(NC(=O)c2ccccc2)C(Cl)(Cl)Cl)c(C)c1 (centres undefined),"inconclusive: 25.1 µM [inhibitor, partial curve, poor fit]",–
NC1=NC(=O)/C(=C/C=C/c2cccs2)S1,"inconclusive: 2.24 µM [activator, full curve, poor fit]",–
O=C(/C=C/c1ccc(S(=O)(=O)N2CCOCC2)cc1)NCc1ccccc1Cl,"inconclusive: 7.08 µM [inhibitor, full curve]",–
CC(C)(C)C(=O)Nc1ccc(C(=O)N/N=C/C2CC3C=CC2C3)cc1 (centres undefined),"inconclusive: 5.62 µM [activator, single point]",–
C(=C\c1ccccc1)/CSc1ccccn1,"inconclusive: 6.31 µM [activator, single point]",–
C=CCNC(=O)/C(C#N)=C/c1ccc(SC)cc1,–,inactive: -21.3% [at 46.1 µM]
COc1cccc(COC(=O)c2ccc(S(=O)(=O)N3CCC(C)CC3)cc2)c1OC,"inconclusive: 0.112 µM [inhibitor, full curve, poor fit]",–
COc1ccc(OC)c(NC(=O)CC2SC(=Nc3ccc(F)cc3)N(CCC3=CCCCC3)C2=O)c1 (centres undefined),"inconclusive: 0.1 µM [activator, full curve, poor fit]",–
CCOC(=O)N1CCN(S(=O)(=O)c2ccc(F)c(C(=O)Nc3ccc(C)c(Cl)c3)c2)CC1,"inconclusive: 18.4 µM [inhibitor, single point]",–
NCC(O)c1cc(O)c(O)cc1F (centres undefined),"inconclusive: 12.6 µM [inhibitor, partial curve, poor fit]",–
COc1ccccc1NC(=O)/C(C#N)=C/C=C/c1ccco1,"inconclusive: 0.58 µM [inhibitor, full curve, poor fit]",–
Cc1ccc2cc(C(c3nnnn3C3CCCC3)N3CCN(c4ccccc4)CC3)c(=O)[nH]c2c1 (centres undefined),"inconclusive: 29.1 µM [inhibitor, single point]",–
CC(C)(C)c1nc2ccccc2c2nnc(SCC(=O)Nc3nccs3)n12,"inconclusive: 1.3 µM [inhibitor, full curve]",–
O=C(O)CCC(=O)NC1CCCCC1,–,inactive: 7.2%
CCOc1ccc(-n2c(=O)cc(N3CCN(c4ccc(F)cc4)CC3)[nH]c2=O)cc1,"inconclusive: 1.16 µM [activator, partial curve, poor fit]",–
Cc1ccc(S(=O)(=O)Nc2c(C)nn(C)c2C)cc1,–,inactive: -10.4%
Cc1ccc(NC(=S)N2CCCC(c3nc4ccccc4[nH]3)C2)cc1 (centres undefined),–,inactive: -23.7%
Cc1ccc(NC(=O)c2ccc(OC(=O)COc3cccc(Cl)c3)cc2)cc1,"inconclusive: 16.4 µM [inhibitor, partial curve, poor fit]",–
CC(NC(=O)c1cn(C)c2ccc(S(=O)(=O)N3CCCC3)cc2c1=O)c1ccc2c(c1)OCCO2 (centres undefined),"inconclusive: 0.206 µM [activator, single point]",–

# No new results follow: entries from further up.
SMILES,Potency,"activity change, negative = inhibition"
NCC(O)c1cc(O)c(O)cc1F (centres undefined),"inconclusive: 12.6 µM [inhibitor, partial curve, poor fit]",–
COc1ccccc1NC(=O)/C(C#N)=C/C=C/c1ccco1,"inconclusive: 0.58 µM [inhibitor, full curve, poor fit]",–
Cc1ccc2cc(C(c3nnnn3C3CCCC3)N3CCN(c4ccccc4)CC3)c(=O)[nH]c2c1 (centres undefined),"inconclusive: 29.1 µM [inhibitor, single point]",–
CC(C)(C)c1nc2ccccc2c2nnc(SCC(=O)Nc3nccs3)n12,"inconclusive: 1.3 µM [inhibitor, full curve]",–
O=C(O)CCC(=O)NC1CCCCC1,–,inactive: 7.2%
CCOc1ccc(-n2c(=O)cc(N3CCN(c4ccc(F)cc4)CC3)[nH]c2=O)cc1,"inconclusive: 1.16 µM [activator, partial curve, poor fit]",–
Cc1ccc(S(=O)(=O)Nc2c(C)nn(C)c2C)cc1,–,inactive: -10.4%
Cc1ccc(NC(=S)N2CCCC(c3nc4ccccc4[nH]3)C2)cc1 (centres undefined),–,inactive: -23.7%
Cc1ccc(NC(=O)c2ccc(OC(=O)COc3cccc(Cl)c3)cc2)cc1,"inconclusive: 16.4 µM [inhibitor, partial curve, poor fit]",–
CC(NC(=O)c1cn(C)c2ccc(S(=O)(=O)N3CCCC3)cc2c1=O)c1ccc2c(c1)OCCO2 (centres undefined),"inconclusive: 0.206 µM [activator, single point]",–

# Further entries.

SMILES,Potency,"activity change, negative = inhibition"
COc1ccc(CC(=O)OCC(=O)Nc2ncc(Cl)cc2Cl)cc1OC,–,inactive: 13.8%
Clc1ccc(OCc2nn3c(-c4ccco4)nnc3s2)cc1,–,inactive: -28.1%
CCN(CC)S(=O)(=O)c1ccc(N2CCOCC2)c(NC(=O)c2cc(-c3ccccn3)nc3ccccc23)c1,"inconclusive: 7.94 µM [inhibitor, partial curve, poor fit]",–
O=C(CN(c1ccccc1)S(=O)(=O)c1ccccc1)N1CCOCC1,"inconclusive: 28.2 µM [inhibitor, single point]",–
COc1ccc(/C=C/C(=O)Oc2cccc(/C=N/NC(=O)c3cccc(F)c3)c2)cc1,"inconclusive: 3.16 µM [inhibitor, partial curve, poor fit]",–
CN1c2ccccc2C(C)(C)C12CC(CCl)=NO2 (centres undefined),–,inactive: -4.68%
Cc1ccc(NC(=O)CNc2ccc(OC(C)C)cc2)cc1,–,inactive: 17.9%
CCOC(=O)c1ccc(S(=O)(=O)Nc2ccc(N3CCOCC3)cc2)cc1,–,inactive: -4.08% [at 46.1 µM]
CCN(CC)CCn1c2c(c(SCC(=O)Nc3cccc(C(C)=O)c3)nc1=O)CCCC2,"inconclusive: 35.5 µM [inhibitor, single point]",–
Fc1ccc(/C=N/Nc2nc(-c3cccnc3)nc3ccccc23)cc1,"inconclusive: 12.6 µM [inhibitor, single point]",–
CS(=O)(=O)N1CCc2cc(C(=O)NCc3ccccc3)ccc21,"inconclusive: 2.82 µM [inhibitor, single point]",–
Cc1cccc(-n2c3nc(=O)n(C)c(=O)c-3cc3ccc(Cl)cc32)c1C,–,inactive: 16.1% [at 46.1 µM]
Cc1cc(OC2CCCCC2)nc(NCc2ccccc2)n1,–,inactive: -3.9% [at 14.2 µM]
C/C(=N\O)c1ccc(Cl)cc1Cl,"inconclusive: 5.62 µM [inhibitor, single point]",–
COc1cccc(NC2SC(=O)N(c3ccccc3)C2=O)c1 (centres undefined),"inconclusive: 2.06 µM [activator, partial curve]",–
COc1ccc(S(=O)(=O)NCC(c2ccc(F)cc2)N2CCN(C)CC2)cc1 (centres undefined),"inconclusive: 17.8 µM [inhibitor, partial curve, poor fit]",–
CCN(Cc1ccccc1)S(=O)(=O)c1cc(C(=O)NC(C)C2CC3CCC2C3)ccc1OC (centres undefined),"inconclusive: 14.6 µM [inhibitor, partial curve, poor fit]",–
Cc1cc(NC2CCCC2)n2ncc(-c3ccccc3)c2n1,"inconclusive: 6.31 µM [inhibitor, full curve, poor fit]",–
CC(C)N1CCC(N2CCN(C3CCCC3)CC2CCO)CC1 (centres undefined),–,inactive: -10.7% [at 46.1 µM]
CN=c1scc(-c2ccccc2F)n1/N=C/c1ccc[nH]1,active: 1 µM,–
OCCN(CCO)CC(O)Cn1c2ccccc2c2ccccc21 (centres undefined),"inconclusive: 32.6 µM [inhibitor, single point]",–
O=C(NC(=S)N1CCCCCC1)C1CC1,"inconclusive: 15.8 µM [activator, partial curve, poor fit]",–
